Among the data in paper PMC12508092 are binding values, retold here.

The chains behind the UniProt entries cited, without tags or fusion partners.
UniProt P37238: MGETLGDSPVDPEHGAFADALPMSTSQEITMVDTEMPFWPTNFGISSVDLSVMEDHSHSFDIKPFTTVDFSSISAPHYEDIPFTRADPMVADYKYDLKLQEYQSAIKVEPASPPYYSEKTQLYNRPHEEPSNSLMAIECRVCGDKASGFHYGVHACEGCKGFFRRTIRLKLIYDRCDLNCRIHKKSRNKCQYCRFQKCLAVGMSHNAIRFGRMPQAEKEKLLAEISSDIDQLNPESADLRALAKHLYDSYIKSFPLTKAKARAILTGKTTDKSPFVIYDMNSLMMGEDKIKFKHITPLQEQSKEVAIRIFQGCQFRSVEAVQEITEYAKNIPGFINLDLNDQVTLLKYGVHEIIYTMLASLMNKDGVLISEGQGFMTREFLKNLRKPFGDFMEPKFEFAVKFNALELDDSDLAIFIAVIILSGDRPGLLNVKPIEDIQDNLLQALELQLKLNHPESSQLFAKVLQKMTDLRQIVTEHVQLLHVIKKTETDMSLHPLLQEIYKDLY

For the assay, the target named is PPAR-γ, endogenous in 3T3-L1 cells (mouse (endogenous in 3T3-L1)) (UniProt P37238). The assay is described as follows: proximity ligation; Duolink in situ PLA with anti-RFP and anti-PPAR-γ antibodies on fixed, permeabilised 3T3-L1 cells, differentiated and undifferentiated.

These are yes or no findings as the source states them, for the method shown. In cells and extracts the contact can be indirect. Some results given as binding are weak or reduced against the parent protein; the word gives no strength.

B1: Ret finger protein (RFP), endogenous in 3T3-L1 cells (protein, UniProt Q62158 1-513)
chain: MASGSVAECLQQETTCPVCLQYFVEPMMLDCGHNICCACLARCWGAAETNVSCPQCRETFPQRHMRPNRHLANVTQLVKQLRTERPSGPGGEMGVCEKHREPLKLYCEQDQMPICVVCDRSREHRGHSVLPLEEAVEGFKEQIQNRLDHLRRVKDLKKRRRAQGEQARAELLSLTQMEREKIVWEFEQLYHSLKEHEYRLLARLEELDLAIYNSINGAITQFSCNISHLSGLIAQLEEKQQQPTRELLQDIGDTLSRAERIRIPEPWITPPDLQEKIHIFAQKCLFLTESLKQFTEKMQSDMEKIQELREAQLYSVDVTLDPDTAYPSLILSDNLRQVRYSYLQQDLPDNPERFNLFPCVLGSPCFIAGRHYWEVEVGDKAKWTIGVCEDSVCRKGGVTSAPQNGFWAVSLWYGKEYWALTSPMTALPLRTPLQRVGIFLDYDAGEVSFYNVTERCHTFTFSHATFCGPVRPYFSLSYSGGKSAAPLIICPMSGIDGFSGHVGNHGHSMETSP
For the molecule B1, the binding result is recorded as “binds”.
